Assay results as given in patent publication US20220281976A1.
Where a chain is given by its changes, count along the chain named. No constants are given. Whether binding was seen depends on the method and setting. Some binding calls cover weakened binding; strength is not graded here.

Chains of the proteins cited; added tags and fusions are not shown. Lines headed by an entry give the natural chain unless they say otherwise; changes in a name come on top.
UniProt P20138: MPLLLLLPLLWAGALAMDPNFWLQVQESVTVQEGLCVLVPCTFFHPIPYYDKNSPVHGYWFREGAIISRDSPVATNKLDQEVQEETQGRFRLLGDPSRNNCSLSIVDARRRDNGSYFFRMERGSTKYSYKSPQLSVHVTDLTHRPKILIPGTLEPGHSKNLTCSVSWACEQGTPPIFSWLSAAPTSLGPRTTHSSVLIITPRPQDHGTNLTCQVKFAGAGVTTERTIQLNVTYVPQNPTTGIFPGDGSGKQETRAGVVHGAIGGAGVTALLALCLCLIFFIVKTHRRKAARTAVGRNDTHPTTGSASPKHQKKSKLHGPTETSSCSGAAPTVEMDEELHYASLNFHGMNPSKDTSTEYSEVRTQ

What was measured:
[1] = biological target: human CD33 Fc fusion protein (human) (UniProt P20138); experiment: SPR (BiaCore T200, 25 C), 200 nM antibody over human CD33/Fc chimera immobilised on a CM5 chip, running buffer at pH 7.3, 6.0 or 5.0
[2] = biological target: human CD33 Fc fusion protein (human) (UniProt P20138); experiment: Biacore SPR, immobilised human CD33/Fc, antibody 200 nM, pH 7.3, 6.0, 5.0
[3] = biological target: human CD33 Fc fusion protein (human) (UniProt P20138); experiment: red blood cell solid adhesion assay: 25 ug/ml Fab bound to plate-bound CD33-Fc before adding red blood cells; blocked ligand: sialic acid ligands on red blood cells

B1: C-44 (antibody, V domains shown)
VH: QLQLQESGPGLVKPSETLSLTCTVSGGSISSSSYAWGWIRQPPGKGLEWIGSIYYSGSTYYNPSLKSRVTISVDTSKNQFSLKLSSVTAADTAVYYCAREGYVAAYGMDVWGQGTTVTVSS
VL: DIQMTQSPSSLSASVGDRVTITCRASQSISSYLNWYQQKPGKAPKLLIYAASSLQSGVPSRFSGSGSGTDFTLTISSLQPEDFATYYCQQAYYPPWTFGGGTKVEIK
B1 was tested, and the binding [1] was “binds” and the binding [2] was “binds”.

B2: Fab fragment of antibody C-65 (Fab, V domains shown)
VH: QVQLVQSGAEVKKPGASVKVSCKASGYTFTSYYMHWVRQAPGQGLEWMGVINPSGGSTSYAQKFQGRVTMTRDTSTSTVYMELSSLRSEDTAVYYCARESQYYDVHGMDVWGQGTTVTVSS
VL: B1 VL with A91Q, Y93T, P94L, W96P
With B2 the binding [3] was “binds”.
